According to patent US20030175365A1, “Natural drug induced differentiation cancer cells to resemble normal cells” (priority 2002, published 2003):
Some of these results come from one statement about several compounds together. For at least one compound, name, drawing or mass did not settle the structure.

Tested on: all cancer cells
Test: Tumor cell proliferation inhibition, all cell lines
Assay type: cell-based
Settings: 1 μg/ml drug, 72 hours

For `COC(=O)C[C@](O)(CCCC(C)(C)O)C(=O)O[C@@H]1C(OC)=C[C@]23CCCN2CCc2cc4c(cc2[C@H]13)OCO4` [HHT, homoharringtonine], the “Percent rates of inhibition of tumor cell growth” value was “more than 70%”.
